Test results from paper PMC3479139, “Diverse Small Molecule Inhibitors of Human Apurinic/Apyrimidinic Endonuclease APE1 Identified from a Screen of a Large Public Collection” (PLoS ONE, 2012).
The match of structure and compound is tentative.

Sequences of proteins named here, by UniProt entry; tags and fusion partners are left off.
UniProt P27695, whole entry: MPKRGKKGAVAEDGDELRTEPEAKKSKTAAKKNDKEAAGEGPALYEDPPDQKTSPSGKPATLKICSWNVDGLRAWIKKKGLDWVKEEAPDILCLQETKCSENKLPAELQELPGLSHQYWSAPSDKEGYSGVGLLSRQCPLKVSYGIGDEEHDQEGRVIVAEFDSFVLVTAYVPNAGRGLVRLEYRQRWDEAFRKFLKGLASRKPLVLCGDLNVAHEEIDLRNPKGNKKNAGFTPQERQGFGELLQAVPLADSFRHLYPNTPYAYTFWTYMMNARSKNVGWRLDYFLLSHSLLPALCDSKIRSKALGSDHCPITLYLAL

Columns and labels:
APE1 [1] = molecular target: T1, APE1 (Homo sapiens, UniProt P27695); test: Fluorogenic kinetic qHTS APE1 incision assay (primary screen and retest of cherrypicked samples); type: biochemical;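 further: purified APE1 cleaving a fluorophore/dark-quencher labelled 17-mer duplex DNA bearing a tetrahydrofuran AP site, fluorescence rise followed kinetically over the first 2 min, inhibition normalized to controls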
APE1 [2] = molecular target: T1, APE1; test: Fluorescence polarization (FP) displacement assay of APE1 binding to AP-DNA probe; settings: read-out: FP IC50;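 further: TAMRA 5′-labeled duplex DNA with THF abasic site (5 nM) and APE1 (20 nM), Mg2+-free buffer, 15 min at room temperature, inhibition seen as lowered polarization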
[3] = molecular target: double-stranded 17-mer DNA fragment; test: ThO (Thiazole Orange) DNA displacement assay; settings: read-out: ThO-DNA binding IC50;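 further: miniaturized displacement of the intercalating dye from unlabeled duplex DNA, used to flag nonspecific DNA binders, chiefly intercalators, groove binders may be missed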
E. coli Endo IV = E. coli Endo IV (Escherichia coli, UniProt P0A6C1); test: E. coli Endo IV profiling counterscreen; type: biochemical; settings: read-out: EndoIV IC50;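 further: selectivity counterscreen of candidate APE1 inhibitors against the bacterial endonuclease Endo IV, run in the same assay format as the primary APE1 high-throughput screen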

Structure (SMILES): [O][C@H]1[C@@H](O)[C@@H](CO)O[C@@H](O[C@@H]2[C@@H]3OC[C@H]2O[C@H](O[C@@H]2[C@@H](O)[C@H](C[C@@H]4[C@@H]5OC[C@H]4O[CH][C@@H]5O)O[C@H](CO)[C@@H]2OS(=O)(=O)O)[C@@H]3OS(=O)(=O)O)[C@@H]1O
- IC50 (APE1 [1]; read-out: APE1 Retest IC50, retest of cherrypicked sample): 7.9 µM
- IC50 (APE1 [1]; read-out: APE1 qHTS IC50, initial quantitative high-throughput screen): 10 µM
- IC50 (APE1 [2]): > 57 µM
- IC50 [3]: > 57 µM
- IC50 (E. coli Endo IV): > 57 µM
